# Measured values published in PubChem BioAssay AID2685 (National Center for Advancing Translational Sciences (NCATS), 2010).
# Out of some 320,000 compounds screened, about 2,100 (0.66%) were called active. The inconclusive results got no clear call from the source; some entries with a clear call stand among them for comparison. Calls follow the shape of the dose curve; as a rule, active = well fitted inhibition curve with a large enough effect in the signal ratio, with a control signal flat (not every such curve was filed as active); inconclusive = small, poorly fitted or top-dose-only effect, or effect the other way, or a change in a side signal; inactive = flat fitted curve, though single readings scatter; the % refers to the signal ratio. Potencies beside an inconclusive call are fits to weak or partial responses and may not hold up.
# Assay: qHTS Assay for Lipid Storage Modulators in Drosophila S3 Cells
# Details: BODIPY lipid droplet fluorescence, 18-24 h, cells fed with added oleic acid; lipid storage change, negative = inhibition: at 46.1 µM (top of the series) unless noted
# In short: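 Laser-scanning cytometry quantifies lipid droplet accumulation (500–530 nm total intensity; droplet/cell object ratio) in oleic acid-fed (400 uM added) Drosophila S3 cells treated with a concentration series. 20 uM Triacsin C defined 100% inhibition.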
# % is scaled to controls: 0 for no effect and ±100 for the full control effect; potency is read from the fitted curve at half-maximal effect.
SMILES,"lipid storage change, negative = inhibition",Potency
CSCC[C@H](NC(=O)OC(C)(C)C)C(=O)NCC1CCC(C(=O)O)CC1 (stereo partly specified),inconclusive: -2.85%,–
CN(c1ccccc1)S(=O)(=O)c1cccc(NC(=O)c2ccc(=O)[nH]c2)c1,inconclusive: 7.52%,–
CCn1ncc(/C=N/NS(=O)(=O)c2ccc(Cl)cc2)c1C,inconclusive: 10.8%,–
Cc1ccc(CNC(=O)c2ccc(S(=O)(=O)N3CCCCC3)cc2)cc1,inconclusive,–
N#Cc1ccc(Oc2cccc3cccnc23)c([N+](=O)[O-])c1,inconclusive: 36.3%,–
Cn1cccc1/C=N/NC(=O)CNc1cccc2ccccc12,inconclusive: 6.77%,–
COc1ccc(OC)c(NC(=O)CSc2nn3c(=O)c(C)nnc3s2)c1,inconclusive: -10%,–
COc1cc(-c2cc(C(=O)Nc3ccc(S(N)(=O)=O)cc3)c3ccccc3n2)cc(OC)c1OC,inconclusive: -10%,–
CCC(CC)C(=O)Nc1c2c(nn1-c1ccc(OC)cc1)CS(=O)(=O)C2,inconclusive: 201%,–
COCCN(CCOC)S(=O)(=O)c1ccc(C(=O)NCCCN2CCOCC2)cc1,inconclusive: 22.2%,–
O=C1c2ccccc2NC(c2ccc(O)cc2)N1/N=C/c1ccc(O)cc1 (stereo unspecified),–,"inconclusive: 13 µM [activator, partial curve]"
CC1(C)CC2(CCO1)OC(=O)CC2C(=O)Nc1ccc(Cl)cc1[N+](=O)[O-] (stereo unspecified),inconclusive: -11.7%,–
COCCN(C(=O)CC1OC(=O)c2ccccc21)c1c(N)n(Cc2ccccc2)c(=O)[nH]c1=O (stereo unspecified),inconclusive: -35.5%,–
O=C(O)CSc1nc2ccccc2c(=O)[nH]1,inconclusive: 6.43%,–
Cc1cccc(N(C)C(=O)c2cnn(-c3ccccc3)c2C)c1,inconclusive: 63.9%,–
CC(=O)NS(=O)(=O)c1ccc(NC(=O)/C=C/c2ccccc2)cc1,inconclusive: -9.66% [at 9.22 µM],–
Cc1ccc(C(=O)NC2CCCCCC2)cc1S(=O)(=O)N1CCOCC1,–,"inconclusive: 2.59 µM [falling, full curve]"
NC(=O)C1CCN(C(=S)c2cccs2)CC1,inconclusive: -98.8%,–
COC(=O)CC1=NN(c2ccc(OC)cc2)C(=O)/C1=C\c1ccc(Cl)cc1,–,"inconclusive: 29.1 µM [falling, single point]"
COc1cccc(COc2ccc3ccc(=O)oc3c2)c1,inconclusive: -82.6%,–
CN(NC(=O)C1CC(=O)N(c2ccccc2)C1)C1=NS(=O)(=O)c2ccccc21 (stereo unspecified),–,"inconclusive: 0.461 µM [cytotoxic, single point]"
O=C(Nc1ccc2ccccc2c1)/C(=C/c1cccc(Br)c1)NC(=O)c1ccco1,inconclusive: 27.1%,–
O=C(O)CC1COc2ccccc2N1S(=O)(=O)c1ccc(Br)cc1 (stereo unspecified),–,"inconclusive: 29.1 µM [activator, single point]"
CC(C)Oc1ccc(C(=O)Nc2c3c(nn2-c2ccccc2)CS(=O)(=O)C3)cc1,inconclusive: 29.6%,–
COc1cc(/C=C2\SC(=O)N(c3ccccc3Cl)C2=O)cc([N+](=O)[O-])c1O,inconclusive: -23.7%,–
O=C(CN1C(=O)NC2(CCCC2)C1=O)N1CCN(S(=O)(=O)c2ccccc2Br)CC1,inconclusive: 125%,–

# Looked up above:
# Under lipid storage change, negative = inhibition, `O=C(O)CSc1nc2ccccc2c(=O)[nH]1` is listed with inconclusive: 6.43%
# Under lipid storage change, negative = inhibition, `O=C(Nc1ccc2ccccc2c1)/C(=C/c1cccc(Br)c1)NC(=O)c1ccco1` is listed with inconclusive: 27.1%

# Later entries:

SMILES,"lipid storage change, negative = inhibition",Potency
COc1ccc([N+](=O)[O-])cc1-n1cccc1,inconclusive: 12.4%,–
O=C(Cc1c(Cl)cccc1Cl)OCc1ccccn1,inconclusive: -5.32%,–
O=C(CC1C(=O)NCCN1Cc1cccc(C(F)(F)F)c1)NC1CCCCCC1 (stereo unspecified),–,active: 5.17 µM
Cc1cc(NC(=O)CSc2nccn2C)n(-c2ccccc2)n1,–,"inconclusive: 0.13 µM [falling, partial curve, poor fit]"
CC(=O)COC(=O)C1CCN(S(=O)(=O)c2cc([N+](=O)[O-])ccc2Cl)CC1,inconclusive: 1.22%,–
CCCN1C2CCCC1CC(NC(=O)c1cc(OC)cc(OC)c1)C2 (stereo unspecified),inconclusive: 24.8%,–
Cc1ccc(C(=O)O/N=C2/CC3CCC2(C)[C@@]3(C)CBr)cc1 (stereo partly specified),inconclusive: -8.81%,–
CC(C)CNC(=O)COC(=O)c1c2c(nc3ccccc13)CCC2,–,"inconclusive: 29.1 µM [falling, single point]"
CCN(CC)Cc1c(O)c(Cl)cc2c(C)c(C)c(=O)oc12,inconclusive: -7.8%,–
Cc1ccc(N=Nc2[nH]c3ccccc3c2O)cc1,–,"inconclusive: 25.9 µM [falling, partial curve, poor fit]"
COc1ccc(-c2[nH]ncc2/C=C(/C#N)C(=O)NC2CCCCC2)cc1,inconclusive: -6.37%,–
Nc1cc(=O)[nH]c(SCc2nc3ccccc3n2Cc2ccccc2)n1,inconclusive: 49.6%,–
Cc1cc(C(=O)CSc2nc3ccccc3n2CCC#N)c(C)n1Cc1cccs1,–,"inconclusive: 29.1 µM [activator, single point]"
Cc1c(C(=O)N(C)c2ccccc2)oc2c1C(O)CC(C)(C)C2 (stereo unspecified),–,"inconclusive: 0.116 µM [activator, full curve, poor fit]"
CCN(CC)CC(=O)Nc1cccc2c1C(=O)c1ccccc1C2=O,inactive,–
CCOC(=O)C1CCN(CC(=O)c2c(C)[nH]c3cc(C)ccc23)CC1,–,"inconclusive: 3.26 µM [activator, partial curve]"
CCN(CC(=O)Nc1ccc2c(c1)OCO2)Cc1nc2ccccc2c(=O)[nH]1,–,"inconclusive: 6.51 µM [activator, single point]"
O=C(Nc1ccc2nc(-c3ccc(Br)o3)[nH]c2c1)c1ccco1,–,"inconclusive: 29.1 µM [rising, single point]"
CC(=O)Nc1ccc(N2C(=O)CC(N3CC(C)OC(C)C3)C2=O)cc1 (stereo unspecified),–,"inconclusive: 3.66 µM [activator, single point]"
COc1ccc(CCN2C(=O)C(Oc3ccccc3)C2c2ccc3c(c2)OCO3)cc1 (stereo unspecified),inconclusive: 19.1%,–
O=C(COc1cc2oc(=O)c3c(c2cc1Cl)CCC3)N1C[C@H]2C[C@@H](C1)c1cccc(=O)n1C2,–,"inconclusive: 9.2 µM [falling, single point]"
O=C(O)c1ccc(S(=O)(=O)N2CCN(c3ccccn3)CC2)cc1,inconclusive: 124%,–
N#C/C(=C/c1cccn1-c1cccc(C(=O)O)c1)c1ccc(Cl)cc1,–,"inconclusive: 10.3 µM [falling, partial curve]"
Cc1cc(OCCN2CCCC2)ccc1[N+](=O)[O-],–,"inconclusive: 29.1 µM [rising, single point]"
C=C1C(=O)O[C@@H]2[C@H]1CC[C@H](C)[C@]1(O)CCC(=O)[C@@]21C,–,"inconclusive: 16.4 µM [falling, partial curve, poor fit]"
COc1ccc(NC(=O)COC(=O)C2CC(=O)N(c3ccc(OC(C)C)cc3)C2)cc1 (stereo unspecified),inconclusive: -42.7%,–

SMILES,"lipid storage change, negative = inhibition",Potency
CC1CCCCN1C(=O)CSc1nc2ncccc2[nH]1 (stereo unspecified),inconclusive: 32.9%,–
COc1cc(-c2n[nH]c(=O)o2)cc(OC)c1OC,inconclusive: 6.65%,–
COc1cccc(-c2nc(-c3cccs3)no2)c1,–,"inconclusive: 3.26 µM [activator, single point]"
O=C(N/N=C/c1ccc(O)c(O)c1)c1cccc(S(=O)(=O)N2CCCCC2)c1,inconclusive: 22.9%,–
O=C(CCc1ccccc1)NC1CCSC1=O (stereo unspecified),inconclusive: 14.2%,–
COc1cc(/C=C2\SC(=O)N(Cc3ccc(F)cc3)C2=O)cc([N+](=O)[O-])c1O,inconclusive: -3.04%,–
O=C(CNC(=O)c1ccc(Cl)cc1)NC1CCCCC1,inconclusive: 18.4%,–
Cc1ccccc1N1CC(C(=O)Nc2nnc(SCc3cccnc3)s2)CC1=O (stereo unspecified),inconclusive: 16.1%,–
COc1ccc(Cl)cc1NS(=O)(=O)c1c(C)nc2sccn2c1=O,–,"inconclusive: 0.82 µM [activator, full curve, poor fit]"
COc1cccc(C(=O)N2CCSC2=S)c1,inconclusive: -20.2%,–
COc1ccc(-c2nnc(SCC(=O)N3CCCCC3)o2)cc1,inconclusive: -110%,–
COc1ccc(CN2C3CCC2CC(NC(=O)c2cccc(F)c2)C3)cc1 (stereo unspecified),–,"inconclusive: 6.51 µM [activator, single point]"
C/C(=N\NC(=O)Cn1nnc2ccccc21)c1ccco1,inconclusive: 2.4%,–
CCCCn1c(CCc2ccccc2)nc2cc3[nH]c(=O)c(C(C)C)nc3cc21,inconclusive: 113%,–
COCCN=c1scc(-c2cc(OC)ccc2OC)n1/N=C/c1c[nH]c2ccccc12,inconclusive: -34.6%,–
CCNC(=O)N(C)c1nncnc1C(=O)NC,inconclusive: -105%,–
COc1cccc(N2C(=O)N(c3ccccc3)C3CS(=O)(=O)CC32)c1 (stereo unspecified),inconclusive: -21.1%,–
Cc1ccc2nc(-c3ccc(SCC(=O)N4CCc5ccccc54)nc3)[nH]c2c1,–,"inconclusive: 18.4 µM [cytotoxic, partial curve]"
C=CCc1c(C)c(C#N)c2nc3ccccc3n2c1NCCN(C)C,inconclusive: 21.8%,–
COc1ccc(Cl)cc1S(=O)(=O)N1CCC(C(=O)NCCC2=CCCCC2)CC1,inconclusive: 0.628%,–
Cc1ccc2c(c1)/C(=N/N1C(=O)c3ccccc3C1=O)C(=O)N2,inconclusive: 137%,–
CCn1cc(CNC(=O)c2ccc3nc(Cc4ccccc4F)oc3c2)cn1,–,"inconclusive: 0.13 µM [activator, full curve, poor fit]"
CCC1CCCCN1C(=O)CSc1nnc(-c2ccc(Cl)cc2)o1 (stereo unspecified),inconclusive: -5.05%,–
CN(C)S(=O)(=O)c1ccc(Cl)c(NC(=O)COC(=O)/C=C/c2ccco2)c1,inconclusive: 12.1%,–
